Consider two sequences from paper PMC6839512.

Chains of the proteins cited; added tags and fusions are not shown. Lines headed by an entry give the natural chain unless they say otherwise; changes in a name come on top. Residues count along the entry.
UniProt P15692: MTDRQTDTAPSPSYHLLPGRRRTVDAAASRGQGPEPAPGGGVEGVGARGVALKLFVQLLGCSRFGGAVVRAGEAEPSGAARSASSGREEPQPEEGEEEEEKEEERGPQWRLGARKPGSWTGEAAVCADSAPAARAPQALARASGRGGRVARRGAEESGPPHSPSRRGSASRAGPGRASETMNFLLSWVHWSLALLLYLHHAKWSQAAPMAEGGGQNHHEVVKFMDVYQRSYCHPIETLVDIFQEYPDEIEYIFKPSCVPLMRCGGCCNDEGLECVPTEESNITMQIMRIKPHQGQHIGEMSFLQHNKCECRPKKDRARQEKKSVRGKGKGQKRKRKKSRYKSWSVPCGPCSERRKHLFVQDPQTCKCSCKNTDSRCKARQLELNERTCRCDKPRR
UniProt P02769, 25-607: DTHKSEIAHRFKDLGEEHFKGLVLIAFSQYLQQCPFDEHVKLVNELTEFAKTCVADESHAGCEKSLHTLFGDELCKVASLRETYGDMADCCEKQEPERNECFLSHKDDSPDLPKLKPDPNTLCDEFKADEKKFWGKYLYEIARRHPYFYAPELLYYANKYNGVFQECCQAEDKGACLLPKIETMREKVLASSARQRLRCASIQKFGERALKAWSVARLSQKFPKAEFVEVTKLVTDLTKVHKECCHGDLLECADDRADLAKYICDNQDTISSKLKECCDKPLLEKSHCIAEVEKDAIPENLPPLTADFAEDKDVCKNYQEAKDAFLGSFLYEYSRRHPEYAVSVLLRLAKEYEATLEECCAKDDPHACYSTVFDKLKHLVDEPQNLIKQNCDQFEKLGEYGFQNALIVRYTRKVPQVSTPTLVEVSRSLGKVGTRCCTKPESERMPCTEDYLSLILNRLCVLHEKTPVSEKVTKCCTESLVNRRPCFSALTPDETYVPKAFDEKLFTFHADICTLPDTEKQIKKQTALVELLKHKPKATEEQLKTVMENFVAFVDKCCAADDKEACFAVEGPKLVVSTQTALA

Series [1] deals with VEGF (human) (UniProt P15692). In words: BLI. The conditions noted are these: BLI buffer, pH and temperature not stated, commercial protein, single-stranded DNA.
The target of series [2] is human serum albumin (HSA) (human) (UniProt P02768). In words: on-chip sandwich RCA fluorescence. The conditions noted are these: sandwich with second aptamer N2; 5'-NH2; on-chip: PBS washes, 10% FBS in PBS block, RCA in phi29 buffer (50 mM Tris-HCl, 10 mM MgCl2, 10 mM (NH4)2SO4, pH 7.5); commercial protein; single-stranded DNA.
The target in series [3] is bovine serum albumin (BSA) (bovine) (UniProt P02769). Description: on-chip sandwich RCA fluorescence. The conditions noted are these: sandwich with second aptamer N2; 5'-NH2; on-chip: PBS washes, 10% FBS in PBS block, RCA in phi29 buffer (50 mM Tris-HCl, 10 mM MgCl2, 10 mM (NH4)2SO4, pH 7.5); commercial protein; single-stranded DNA.
In series [4] the test system is epidermal growth factor receptor (EGFR). In words: on-chip sandwich RCA fluorescence. The conditions noted are these: sandwich with second aptamer N2; 5'-NH2; on-chip: PBS washes, 10% FBS in PBS block, RCA in phi29 buffer (50 mM Tris-HCl, 10 mM MgCl2, 10 mM (NH4)2SO4, pH 7.5); commercial protein; single-stranded DNA.
Series [5] has as its system insulin. In words: on-chip sandwich RCA fluorescence. The conditions noted are these: sandwich with second aptamer N2; 5'-NH2; on-chip: PBS washes, 10% FBS in PBS block, RCA in phi29 buffer (50 mM Tris-HCl, 10 mM MgCl2, 10 mM (NH4)2SO4, pH 7.5); commercial protein; single-stranded DNA.

Construct, isoform or probe ends are uncertain for at least one entry. For part of these data: Weaker means in comparison with the reference protein, sequence or condition of that experiment. For part of these data: At least one verdict rests on a figure or table, not on a statement of the authors.

With “TTTTTTTTGTGGGGGTGGACGGGCCGGGTAGA [first DNA aptamer for VEGF (capture)]”, the binding result is recorded as “binds” in series [1] (aptamer immobilized on AR2G sensor, 5'-NH2); “binds more weakly” in series [2]; “binds more weakly” in series [3]; “binds more weakly” in series [4]; “binds more weakly” in series [5].
Take “CAATTGGGCCCGTCCGTATGGTGGGTAAAAAAAAAAAAAAACACAGCTGAGGATAGGACAT [second DNA aptamer ligation template for VEGF]”: in series [1] (VEGF pre-captured on immobilized first aptamer (sandwich), 5'-phosphate), the binding result is “binds”.
